According to the supplement of paper PMC3334620:
In all, about 33,000 sequences were measured (“E-score (-0.5 to 0.5)”: median about -0.015, highest 2% from about 0.3 on). The list shows a part of the results.

These sequences were tested against T1, Abf1 (UniProt P14164) (assay: PBM E-score (8-mer binding enrichment) (E-score (-0.5 to 0.5)); higher = stronger / more preferred TF binding). Conditions: protein concentration: 200 nM; construct: GST-full length.
T1 sequence: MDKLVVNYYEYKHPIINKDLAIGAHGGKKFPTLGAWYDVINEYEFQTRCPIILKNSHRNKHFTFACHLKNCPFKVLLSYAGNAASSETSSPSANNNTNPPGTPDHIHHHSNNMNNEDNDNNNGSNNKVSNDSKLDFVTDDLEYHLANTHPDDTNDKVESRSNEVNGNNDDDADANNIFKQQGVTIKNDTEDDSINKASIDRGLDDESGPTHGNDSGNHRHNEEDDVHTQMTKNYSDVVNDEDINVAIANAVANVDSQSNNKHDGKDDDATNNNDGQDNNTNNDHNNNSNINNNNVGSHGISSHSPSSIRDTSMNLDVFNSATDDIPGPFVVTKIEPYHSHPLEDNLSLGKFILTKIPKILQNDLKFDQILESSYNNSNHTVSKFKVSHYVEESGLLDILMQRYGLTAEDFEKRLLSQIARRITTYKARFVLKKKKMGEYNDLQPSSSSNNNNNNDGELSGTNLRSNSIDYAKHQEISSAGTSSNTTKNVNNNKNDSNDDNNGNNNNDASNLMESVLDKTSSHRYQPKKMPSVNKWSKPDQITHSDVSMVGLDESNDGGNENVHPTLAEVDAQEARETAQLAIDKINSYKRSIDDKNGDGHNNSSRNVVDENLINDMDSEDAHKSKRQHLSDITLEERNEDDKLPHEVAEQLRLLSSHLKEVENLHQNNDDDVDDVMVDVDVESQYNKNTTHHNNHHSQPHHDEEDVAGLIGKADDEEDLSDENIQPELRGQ
Procedure, shortened: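 Bound GST-tagged yeast transcription factors, applied at about 100-200 nM to double-stranded universal all-10-mer Agilent arrays, were detected with fluorescent anti-GST. Scans were normalised with masliner. A modified Wilcoxon-Mann-Whitney statistic, the E-score, was assigned to each ungapped eight-base word pooled with its reverse complement by the Universal PBM Analysis Suite.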

Point of comparison: TGTCTAAA, “PBM E-score” value 0.189. Against it:
- CTGGAAAG — lower, 0.0529
- ACATATCA — higher, 0.341
- CGAGTGGC — lower, -0.112
- CTTCCGCA — lower, -0.00655
- CACAATAC — lower, 0.0342
- ACGTCGTC — higher, 0.238
- AGCCAAAA — lower, 0.0415
- AGTTCGTA — higher, 0.264
- TGCGTCCA — lower, -0.126
- CTTGGTTC — lower, -0.053
- CAAACATG — lower, -0.0732
- ACCTTGGC — lower, -0.256
- CTTGGTGC — lower, -0.213
- CCCGGTAC — lower, -0.0442
- CCTGCACA — lower, -0.163
- ATGCATAA — lower, 0.033
- ATGCATCC — lower, -0.194
- GAATCCTA — lower, 0.151
- GCGACCAA — lower, -0.0512
- CGCGTAAA — lower, 0.0624
- AACGGCAA — higher, 0.224
- CTAGGGCA — lower, -0.273
- AGTCTCGC — lower, 0.00789
- AAAGCCTA — lower, -0.182
- TCTCTTCA — lower, 0.063
- ATGTGTTA — higher, 0.212
- CTCCCCAG — lower, -0.394
- TAGGTGAA — lower, -0.0364
- ACCCTAAG — lower, 0.0923
- CATTCATA — lower, 0.154
- AGGCGGCA — lower, -0.0675
- CCTAAGAC — lower, -0.21
- CATGGTCG — lower, -0.0567
- GGCAACCC — lower, -0.0796
- AGATGTCG — lower, 0.103
- ACCCGCGA — lower, 0.0496
- AACTCGGG — lower, 0.0149
- GAAATGGA — lower, 0.0553
- ACTATGCT — lower, 0.0126
- AGTTGTCG — lower, -0.0227
- AACACATT — lower, -0.0385
- CAACACTA — lower, 0.0223
- ATCCGTAA — lower, 0.14
- CAGGAATG — lower, -0.203
- CGTGGAGC — lower, -0.0663
- TTAAATAA — lower, 0.102
- TCGCGCAA — lower, 0.188
- ACAAGGCG — lower, -0.0424
- TGAGTAAA — lower, -0.0564
- ACTTGGAT — lower, 0.0225
- GGATAGGA — lower, -0.137
- GAGCAGAA — lower, -0.0795
- CGCGCCTA — lower, 0.116
- CTCAGAGC — lower, -0.255
- GAAAACGA — higher, 0.252
- TGGTAACA — lower, 0.0805
- AAAAAAAT — lower, 0.172
- GAGAAAAC — lower, -0.00255
- AAATTACC — lower, -0.0299
- AGAGTAGC — lower, -0.278
- TCCGACCA — lower, -0.143
- CTGCAGTC — lower, -0.138
- TATCAGAA — lower, 0.0936
- ATATGAAA — higher, 0.242
- ATAATTGG — lower, -0.0522
- AATATAGT — lower, 0.102
- GTATTATA — higher, 0.22
- ATGAGTTC — lower, -0.0585
- ATAACCGG — lower, -0.152
- AGACTATG — lower, -0.227
- GAGATTAA — lower, 0.0915
- ATTTGTTA — higher, 0.201
- CCACAGTA — lower, 0.00338
- ACGGGCAG — lower, 0.00723
- CATTAATG — higher, 0.221
- AGAGGCTC — lower, -0.241
- CTTGGTAC — higher, 0.22
- AATATGCC — lower, -0.0427
- CTTTTCAC — lower, 0.0993
- CTGATTAA — lower, 0.186
- GGGACTAC — lower, -0.0569
- CAATGCAC — lower, 0.0437
- CAGTAATA — higher, 0.304
- CGAGCGGA — lower, -0.0371
- GAGGGCGC — lower, -0.289
- GGAGAGCA — lower, -0.253
- CATAGATG — lower, -0.276
- GGAAGGAC — lower, 0.0147
- GAGTTAAA — lower, 0.0205
- GACGCAGA — lower, -0.0453
- CGCAGCAA — lower, -0.037
- AAATTGCT — lower, -0.194
- ATCTGAAG — lower, -0.1
- AATCGTTC — lower, 0.119
- CCTGGGTC — lower, -0.151
- AGTTGATG — lower, -0.0602
- AAGTACAG — lower, -0.229
- CGTCCAAG — lower, -0.0596
- ATCTTATC — lower, 0.0804
- GGGCGCTA — lower, -0.0605
- ATCCCAAG — lower, -0.123
- ACCCACAC — lower, -0.00825
- AACGGAGG — lower, -0.167
- AGACGTGC — higher, 0.278
- GCGTAAGA — lower, -0.0591
- AGCCTGTA — lower, -0.0756
- AACTCTGT — lower, -0.181
- CGCCTACC — lower, -0.0178
- GACTACCC — lower, -0.178
- AATAGGCG — lower, -0.0464
- AAAATCCA — lower, 0.128
- GCGAACTA — lower, -0.0767
- ACCATCAC — lower, -0.0552
- CGACCGGC — lower, -0.23
- GGGTACAA — lower, -0.00239
- CGGCAAAG — lower, -0.0158
- ACGTTTCA — lower, 0.0549
- AGCATTGC — lower, 0.026
- AGTAATCG — lower, 0.0678
- AACTAGCA — lower, -0.229
- GTTGGTCA — higher, 0.221
- ACATCCTG — lower, -0.0316
- AAACATCT — lower, -0.077
- GGTATCCA — lower, 0.023
- GCGTTCCC — lower, -0.0877
- AGATCTGC — lower, 0.127
- AGACTGCT — lower, -0.264
- AGCATAAG — lower, -0.0422
- ACTTGATC — lower, 0.0974
- GGACGTTA — lower, 0.0457
- GTCCTACA — lower, -0.0143
- AATCTGTA — lower, 0.0445
- ATCACATC — lower, 0.117
- ATCACCAT — higher, 0.254
- AACAATAA — lower, 0.183
- CCGTCAAG — lower, 0.0668
- CAACGGGG — lower, -0.0368
- ATTCACCG — lower, 0.0879
- GTATCGAC — lower, 0.0474
- CATTTAAC — lower, -0.0151
- CTCGCCAC — lower, 0.00709
- CCCAAGGA — lower, -0.214
- AACCATGT — lower, -0.0445
- GCAACACA — lower, -0.165
- ACCGAATG — lower, 0.0364
- GAGAGGGC — lower, -0.392
- ACCTCTGA — lower, -0.169
- AGTCTAAC — lower, -0.2
- AAACGCCG — lower, 0.185
- ATCTTGGG — lower, 0.158
- CGAGATGA — lower, 0.0379
- CCCCTGGC — lower, -0.333
- CAGTGAAG — lower, -0.0452
- AACCTGGC — lower, -0.112
- ACTAATTC — lower, 0.0769
- CAAGGTGC — lower, -0.0647
- GACTAATC — lower, 0.137
- GTCCCAAC — lower, 0.0207
- GTAGAGTA — lower, 0.035
- GGTCACAA — lower, 0.0662
- ATCCATAA — lower, 0.0983
- GATGCATC — lower, 0.113
- AGCATTCA — lower, -0.146
- AAAGGCCC — lower, 0.0407
- ACATCAGA — lower, 0.0196
- AGTGATTC — higher, 0.207
- ACGGTAAT — lower, 0.0479
- AACTAATG — lower, 0.0464
- ATTCCTTA — lower, 0.0267
- ACCATTAA — lower, 0.156
- AACCCAGA — lower, -0.13
